Assay results: publication PMC9425039
No constants are given. Whether binding was seen depends on the method and setting. In cells and extracts the contact can be indirect. Some binding calls cover weakened binding; strength is not graded here. Values belong to the substance of their own block, whether it stands above or below them.

By UniProt entry, the sequences of proteins in these tests, tags left out.
UniProt P28033: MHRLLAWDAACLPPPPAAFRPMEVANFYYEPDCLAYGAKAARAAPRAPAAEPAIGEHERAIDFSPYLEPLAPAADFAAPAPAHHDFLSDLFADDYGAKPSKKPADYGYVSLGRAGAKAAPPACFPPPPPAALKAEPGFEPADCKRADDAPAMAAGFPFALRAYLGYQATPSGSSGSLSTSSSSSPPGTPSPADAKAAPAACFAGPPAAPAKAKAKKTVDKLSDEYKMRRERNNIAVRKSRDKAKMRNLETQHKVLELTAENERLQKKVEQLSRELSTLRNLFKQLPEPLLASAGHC
UniProt Q9JIF0: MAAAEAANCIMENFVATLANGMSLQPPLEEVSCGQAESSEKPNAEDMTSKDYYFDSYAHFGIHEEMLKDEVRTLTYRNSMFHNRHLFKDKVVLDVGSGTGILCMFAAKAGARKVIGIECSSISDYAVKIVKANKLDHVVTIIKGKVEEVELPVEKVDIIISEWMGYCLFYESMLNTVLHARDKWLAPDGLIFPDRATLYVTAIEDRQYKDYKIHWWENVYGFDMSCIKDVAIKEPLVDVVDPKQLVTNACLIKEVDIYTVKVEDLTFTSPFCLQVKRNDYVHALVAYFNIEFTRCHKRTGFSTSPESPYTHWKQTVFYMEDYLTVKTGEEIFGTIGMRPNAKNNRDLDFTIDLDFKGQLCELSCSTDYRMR

Tests used:
[1] = target: CCATT enhancer-binding protein β (C/EBPβ), endogenous in 3T3-L1 cells (mouse (endogenous in 3T3-L1)) (UniProt P28033); test: co-IP; endogenous proteins; 3T3-L1 cells treated with DMI for 2 days; lysates immunoprecipitated with anti-PRMT1 or anti-C/EBPβ antibody on Dynabeads Protein G, overnight at 4 °C, four washes; Western blot
[2] = target: CCATT enhancer-binding protein β (C/EBPβ), Flag-tagged, from the plasmid C/EBPβ-Flag (UniProt P28033); test: co-IP; 293T cells cotransfected with plasmids expressing PRMT1 and C/EBPβ; lysates immunoprecipitated with anti-PRMT1 or anti-C/EBPβ antibody on Dynabeads Protein G, overnight at 4 °C, four washes; Western blot
[3] = target: Protein arginine methyltransferase 1 (PRMT1), endogenous in 3T3-L1 cells (mouse (endogenous in 3T3-L1)) (UniProt Q9JIF0); test: co-IP; endogenous proteins; 3T3-L1 cells treated with DMI for 2 days; lysates immunoprecipitated with anti-PRMT1 or anti-C/EBPβ antibody on Dynabeads Protein G, overnight at 4 °C, four washes; Western blot
[4] = target: Protein arginine methyltransferase 1 (PRMT1), Myc-tagged, from pcDNA3.1-Myc-PRMT1 (mouse) (UniProt Q9JIF0); test: co-IP; 293T cells cotransfected with plasmids expressing PRMT1 and C/EBPβ; lysates immunoprecipitated with anti-PRMT1 or anti-C/EBPβ antibody on Dynabeads Protein G, overnight at 4 °C, four washes; Western blot

binding [1]: binds
Substance: Protein arginine methyltransferase 1 (PRMT1), endogenous in 3T3-L1 cells (from UniProt Q9JIF0 1-371) (enzyme)

binding [2]: binds
Substance: Protein arginine methyltransferase 1 (PRMT1), Myc-tagged, from pcDNA3.1-Myc-PRMT1 (from UniProt Q9JIF0 1-371) (enzyme)

binding [3]: binds
Substance: CCATT enhancer-binding protein β (C/EBPβ), endogenous in 3T3-L1 cells (from UniProt P28033 1-296)

binding [4]: binds
Substance: CCATT enhancer-binding protein β (C/EBPβ), Flag-tagged, from the plasmid C/EBPβ-Flag (from UniProt P28033 1-296)
